Results are given in words; binding and its absence hold for the method and conditions named. A result given as binding can be weak or reduced; the word gives no strength.
How the values were obtained:
[1] = biological target: Hemagglutinin (Influenza B) (Influenza B); assay: ELISA
[2] = biological target: Non-structural protein 1 (NSP-1, Dengue virus) (Dengue virus); assay: ELISA
[3] = biological target: Pilin (Streptococcus pneumoniae) (Streptococcus pneumoniae); assay: ELISA
[4] = biological target: Hemagglutinin (Influenza B) (Influenza B); assay: figure legend; ELISA
[5] = biological target: Non-structural protein 1 (NSP-1, Dengue virus) (Dengue virus); assay: figure legend; ELISA
[6] = biological target: Pilin (Streptococcus pneumoniae) (Streptococcus pneumoniae); assay: figure legend; ELISA

Measured: binding

B1: G2-VHH (also referred to as VHH-G2) (VHH)
VHH: QVQLVESGGGLVQPGGSLRLSCAASGFTMGDYAIGWFRQVPGKEREGLSYSTKNGIKAYADSVRDRFTISRENAKNTVYLQMNSLKPEDTAVYYCAASTRFGGLLVSRYDYWGQGTQVTVSS
binds: [1] | [2] | [3] | [4] | [5] | [6]

Reference: patent US20260258116A1
